# Some of the results follow.
# B1: SP15308B-bot-339-22-339 (Bacteroides ovatus) (protein)
# chain: NEWEDEQYEQYVSFKAPIASGSDGVTTIYVRYKDNGKVTYQLPIIVSGSTVNSQDRDIHIAVDKDTLKTLNIERFSLYRPELWYTEMEEDKYEFPETVHIPAGSCVELLNIDFNLQDIDMLEKWVLPLTIVDDGSYAYQSHPRKNYAKALLKVVPFNNYSGSYTASSMKVYTYINGKPDTNARTTDKRTGYVVDNNSIFFYAGLINEDMDKDMRKKYKINVHFKEDGTLDMKQDDPSNEMEFELIGTPTYSSTSVMDATRPYLERRYVQIMFEYDFQDFTYGGSGTEVIPIKYRVAGSMTLLRNINTQIPDEDQQIEW
# Tests used:
# Assay in all cases: glycan array binding signal (z-score within array); higher = stronger binding
# Details in all cases: glycan notation: IUPAC condensed, linker removed
# Fuc(a1-2)Gal = biological target: Fuc(a1-2)Gal
# Procedure, shortened: (§1)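 From the Consortium for Functional Glycomics database, 3228 arrays were curated, keeping only those whose protein sequence was available. Binding is given as a within-array Z-score averaged across arrays sharing a protein sequence and across linkers. Negative Z-scores can be read as non-binding.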
# Fuc(a1-2)Gal(b1-3)GalNAc = biological target: Fuc(a1-2)Gal(b1-3)GalNAc
# Procedure, shortened: as §1
# [1] = biological target: Fuc(a1-2)Gal(b1-3)GalNAc(a1-3)[Fuc(a1-2)]Gal(b1-4)Glc
# Procedure, shortened: as §1
# [2] = biological target: Fuc(a1-2)Gal(b1-3)GalNAc(a1-3)[Fuc(a1-2)]Gal(b1-4)GlcNAc
# Procedure, shortened: as §1
# [3] = biological target: Fuc(a1-2)Gal(b1-3)GalNAc(b1-3)Gal
# Procedure, shortened: as §1
# [4] = biological target: Fuc(a1-2)Gal(b1-3)GalNAc(b1-3)Gal(a1-4)Gal(b1-4)Glc
# Procedure, shortened: as §1
# [5] = biological target: Fuc(a1-2)Gal(b1-3)GalNAc(b1-4)[Neu5Ac(a2-3)]Gal(b1-4)Glc
# Procedure, shortened: as §1
# Fuc(a1-2)Gal(b1-3)GlcNAc = biological target: Fuc(a1-2)Gal(b1-3)GlcNAc
# Procedure, shortened: as §1
# [6] = biological target: Fuc(a1-2)Gal(b1-3)GlcNAc(b1-2)Man(a1-3)[Fuc(a1-2)Gal(b1-3)GlcNAc(b1-2)Man(a1-6)]Man(b1-4)GlcNAc(b1-4)GlcNAc
# Procedure, shortened: as §1
# [7] = biological target: Fuc(a1-2)Gal(b1-3)GlcNAc(b1-2)Man(a1-3)[Fuc(a1-2)Gal(b1-3)GlcNAc(b1-2)Man(a1-6)]Man(b1-4)GlcNAc(b1-4)[Fuc(a1-6)]GlcNAc
# Procedure, shortened: as §1
# [8] = biological target: Fuc(a1-2)Gal(b1-3)GlcNAc(b1-3)Gal(b1-4)Glc
# Procedure, shortened: as §1
# [9] = biological target: Fuc(a1-2)Gal(b1-3)GlcNAc(b1-3)GalNAc
# Procedure, shortened: as §1
# [10] = biological target: Fuc(a1-2)Gal(b1-3)GlcNAc(b1-3)[Fuc(a1-2)Gal(b1-3)GlcNAc(b1-6)]GalNAc
# Procedure, shortened: as §1
# [11] = biological target: Fuc(a1-2)Gal(b1-3)GlcNAc(b1-3)[Gal(b1-4)GlcNAc(b1-6)]Gal(b1-4)Glc
# Procedure, shortened: as §1
# [12] = biological target: Fuc(a1-2)Gal(b1-3)GlcNAc(b1-3)[Neu5Ac(a2-6)Gal(b1-4)GlcNAc(b1-6)]Gal(b1-4)Glc
# Procedure, shortened: as §1
# [13] = biological target: Fuc(a1-2)Gal(b1-3)GlcNAc6S
# Procedure, shortened: as §1
# [14] = biological target: Fuc(a1-2)Gal(b1-3)[Fuc(a1-4)]GlcNAc
# Procedure, shortened: as §1
# [15] = biological target: Fuc(a1-2)Gal(b1-3)[Fuc(a1-4)]GlcNAc(b1-2)Man(a1-3)[Fuc(a1-2)Gal(b1-3)[Fuc(a1-4)]GlcNAc(b1-2)Man(a1-3)]Man(b1-4)GlcNAc(b1-4)GlcNAc
# Procedure, shortened: as §1
# [16] = biological target: Fuc(a1-2)Gal(b1-3)[Fuc(a1-4)]GlcNAc(b1-2)Man(a1-3)[Fuc(a1-2)Gal(b1-3)[Fuc(a1-4)]GlcNAc(b1-2)Man(a1-6)]Man(b1-4)GlcNAc(b1-4)[Fuc(a1-6)]GlcNAc(b1-4)[Fuc(a1-6)]GlcNAc
# Procedure, shortened: as §1
# [17] = biological target: Fuc(a1-2)Gal(b1-3)[Fuc(a1-4)]GlcNAc(b1-3)[Fuc(a1-3)[Gal(b1-4)]GlcNAc(b1-6)]Gal(b1-4)Glc
# Procedure, shortened: as §1
# [18] = biological target: Fuc(a1-2)Gal(b1-3)[Fuc(a1-4)]GlcNAc(b1-3)[Gal(b1-4)GlcNAc(b1-6)]Gal(b1-4)Glc
# Procedure, shortened: as §1
# [19] = biological target: Fuc(a1-2)Gal(b1-4)Fuc(a1-3)]GlcNAc(b1-2)Man(a1-3)[Fuc(a1-2)Gal(b1-4)[Fuc(a1-3)]GlcNAc(b1-2)Man(a1-6)]Man(b1-4)GlcNAc(b1-4)GlcNAc
# Procedure, shortened: as §1
# Fuc(a1-2)Gal(b1-4)Glc = biological target: Fuc(a1-2)Gal(b1-4)Glc
# Procedure, shortened: as §1
# Fuc(a1-2)Gal(b1-4)Glc6S = biological target: Fuc(a1-2)Gal(b1-4)Glc6S
# Procedure, shortened: as §1
# Fuc(a1-2)Gal(b1-4)GlcNAc = biological target: Fuc(a1-2)Gal(b1-4)GlcNAc
# Procedure, shortened: as §1
# [20] = biological target: Fuc(a1-2)Gal(b1-4)GlcNAc(b1-2)Man
# Procedure, shortened: as §1
# [21] = biological target: Fuc(a1-2)Gal(b1-4)GlcNAc(b1-2)Man(a1-3)[Fuc(a1-2)Gal(b1-4)GlcNAc(b1-2)Man(a1-6)]Man(b1-4)GlcNAc(b1-4)GlcNAc
# Procedure, shortened: as §1
# [22] = biological target: Fuc(a1-2)Gal(b1-4)GlcNAc(b1-2)Man(a1-3)[Fuc(a1-2)Gal(b1-4)GlcNAc(b1-2)Man(a1-6)]Man(b1-4)GlcNAc(b1-4)[Fuc(a1-6)]GlcNAc
# Procedure, shortened: as §1
# [23] = biological target: Fuc(a1-2)Gal(b1-4)GlcNAc(b1-2)[Fuc(a1-2)Gal(b1-4)GlcNAc(b1-4)]Man(a1-3)[Fuc(a1-2)Gal(b1-4)GlcNAc(b1-2)Man(a1-6)]Man(b1-4)GlcNAc(b1-4)GlcNAc
# Procedure, shortened: as §1
# [24] = biological target: Fuc(a1-2)Gal(b1-4)GlcNAc(b1-3)Gal(b1-4)GlcNAc
# Procedure, shortened: as §1
# [25] = biological target: Fuc(a1-2)Gal(b1-4)GlcNAc(b1-3)Gal(b1-4)GlcNAc(b1-2)Man(a1-3)[Fuc(a1-2)Gal(b1-4)GlcNAc(b1-3)Gal(b1-4)GlcNAc(b1-2)Man(a1-6)]Man(b1-4)GlcNAc(b1-4)GlcNAc
# Procedure, shortened: as §1
# [26] = biological target: Fuc(a1-2)Gal(b1-4)GlcNAc(b1-3)Gal(b1-4)GlcNAc(b1-3)Gal(b1-4)GlcNAc
# Procedure, shortened: as §1
# [27] = biological target: Fuc(a1-2)Gal(b1-4)GlcNAc(b1-3)GalNAc
# Procedure, shortened: as §1
# [28] = biological target: Fuc(a1-2)Gal(b1-4)GlcNAc(b1-3)[Fuc(a1-2)Gal(b1-4)GlcNAc(b1-6)]GalNAc
# Procedure, shortened: as §1
# [29] = biological target: Fuc(a1-2)Gal(b1-4)GlcNAc(b1-3)[Fuc(a1-3)[Gal(b1-4)]GlcNAc(b1-6)]Gal(b1-4)Glc
# Procedure, shortened: as §1
# [30] = biological target: Fuc(a1-2)Gal(b1-4)GlcNAc(b1-6)GalNAc
# Procedure, shortened: as §1
# [31] = biological target: Fuc(a1-2)Gal(b1-4)GlcNAc6S
# Procedure, shortened: as §1
# [32] = biological target: Fuc(a1-2)Gal(b1-4)[Fuc(a1-3)]GlcNAc
# Procedure, shortened: as §1
# [33] = biological target: Fuc(a1-2)Gal(b1-4)[Fuc(a1-3)]GlcNAc(b1-2)Man(a1-3)[Fuc(a1-2)Gal(b1-4)[Fuc(a1-3)]GlcNAc(b1-2)Man(a1-6)]Man(b1-4)GlcNAc(b1-4)[Fuc(a1-6)]GlcNAc
# Procedure, shortened: as §1
# [34] = biological target: Fuc(a1-2)Gal(b1-4)[Fuc(a1-3)]GlcNAc(b1-2)[Fuc(a1-2)Gal(b1-4)[Fuc(a1-3)]GlcNAc(b1-4)]Man(a1-3)[Fuc(a1-2)Gal(b1-4)[Fuc(a1-3)]GlcNAc(b1-2)Man(a1-6)]Man(b1-4)GlcNAc(b1-4)GlcNAc
# Procedure, shortened: as §1
# [35] = biological target: Fuc(a1-2)Gal(b1-4)[Fuc(a1-3)]GlcNAc(b1-3)Gal(b1-4)[Fuc(a1-3)]GlcNAc
# Procedure, shortened: as §1
# [36] = biological target: Fuc(a1-2)Gal(b1-4)[Fuc(a1-3)]GlcNAc(b1-3)Gal(b1-4)[Fuc(a1-3)]GlcNAc(b1-3)Gal(b1-4)[Fuc(a1-3)]GlcNAc
# Procedure, shortened: as §1
# [37] = biological target: Fuc(a1-2)Gal(b1-4)[Fuc(a1-3)]GlcNAc(b1-3)GalNAc
# Procedure, shortened: as §1
# [38] = biological target: Fuc(a1-2)Gal(b1-4)[Fuc(a1-3)]GlcNAc(b1-3)[Neu5Ac(a2-6)Gal(b1-4)GlcNAc(b1-6)]Gal(b1-4)Glc
# Procedure, shortened: as §1
# [39] = biological target: Fuc(a1-2)Gal3S(b1-4)GlcNAc
# Procedure, shortened: as §1
binder,measurement,setting,value
B1,glycan array binding signal (z-score),Fuc(a1-2)Gal,-0.344
same,glycan array binding signal (z-score),Fuc(a1-2)Gal(b1-3)GalNAc,-0.379
same,glycan array binding signal (z-score),[1],-0.613
same,glycan array binding signal (z-score),[2],-0.366
same,glycan array binding signal (z-score),[3],-0.054
same,glycan array binding signal (z-score),[4],-0.142
same,glycan array binding signal (z-score),[5],-0.117
same,glycan array binding signal (z-score),Fuc(a1-2)Gal(b1-3)GlcNAc,-0.144
same,glycan array binding signal (z-score),[6],0.297
same,glycan array binding signal (z-score),[7],-0.245
same,glycan array binding signal (z-score),[8],-0.507
same,glycan array binding signal (z-score),[9],-0.737
same,glycan array binding signal (z-score),[10],0.592
same,glycan array binding signal (z-score),[11],-0.492
same,glycan array binding signal (z-score),[12],-0.481
same,glycan array binding signal (z-score),[13],1.23
same,glycan array binding signal (z-score),[14],-0.475
same,glycan array binding signal (z-score),[15],-0.198
same,glycan array binding signal (z-score),[16],0.336
same,glycan array binding signal (z-score),[17],0.141
same,glycan array binding signal (z-score),[18],0.02
same,glycan array binding signal (z-score),[19],0.796
same,glycan array binding signal (z-score),Fuc(a1-2)Gal(b1-4)Glc,-0.188
same,glycan array binding signal (z-score),Fuc(a1-2)Gal(b1-4)Glc6S,0.38
same,glycan array binding signal (z-score),Fuc(a1-2)Gal(b1-4)GlcNAc,-0.027
same,glycan array binding signal (z-score),[20],-0.211
same,glycan array binding signal (z-score),[21],0.848
same,glycan array binding signal (z-score),[22],-0.321
same,glycan array binding signal (z-score),[23],0.217
same,glycan array binding signal (z-score),[24],-0.58
same,glycan array binding signal (z-score),[25],0.402
same,glycan array binding signal (z-score),[26],-0.277
same,glycan array binding signal (z-score),[27],0.517
same,glycan array binding signal (z-score),[28],-0.247
same,glycan array binding signal (z-score),[29],-0.185
same,glycan array binding signal (z-score),[30],0.515
same,glycan array binding signal (z-score),[31],-0.184
same,glycan array binding signal (z-score),[32],0.461
same,glycan array binding signal (z-score),[33],0.719
same,glycan array binding signal (z-score),[34],0.54
same,glycan array binding signal (z-score),[35],-0.601
same,glycan array binding signal (z-score),[36],0.168
same,glycan array binding signal (z-score),[37],0.83
same,glycan array binding signal (z-score),[38],-0.147
same,glycan array binding signal (z-score),[39],-0.404

# Some of the entries above, reformatted:
binder | measurement | setting | value
B1 | glycan array binding signal (z-score) | [26] | -0.277
same | glycan array binding signal (z-score) | [32] | 0.461
